In paper PMC2905333:
Results are given in words; binding and its absence hold for the method and conditions named. For some assays here: In cells and extracts the contact can be indirect. Some results given as binding are weak or reduced against the parent protein; the word gives no strength. Where a sequence is shown, tags or fusion partners need not be part of it.

The chains behind the UniProt entries cited, without tags or fusion partners.
UniProt P49069: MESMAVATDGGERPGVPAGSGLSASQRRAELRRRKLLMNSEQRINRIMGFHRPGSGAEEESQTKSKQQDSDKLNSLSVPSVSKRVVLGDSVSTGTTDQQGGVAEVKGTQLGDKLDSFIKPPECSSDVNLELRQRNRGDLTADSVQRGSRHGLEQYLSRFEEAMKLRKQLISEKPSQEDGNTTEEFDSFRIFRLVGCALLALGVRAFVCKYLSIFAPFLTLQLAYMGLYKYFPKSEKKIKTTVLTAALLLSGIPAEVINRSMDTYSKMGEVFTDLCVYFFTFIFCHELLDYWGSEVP

Columns and labels:
RNF122-myc (human) = target: T1, RNF122-myc (human) (UniProt Q9H9V4); test: co-IP; HEK293T cotransfected with RNF122-myc or mut-RNF122-myc and CAML-FLAG; 2.5 μg/mL MG132 for 6 h; lysed in PBS with 1% Triton X-100; immunoprecipitated with anti-myc antibody agarose beads, blot with anti-FLAG
T1 sequence: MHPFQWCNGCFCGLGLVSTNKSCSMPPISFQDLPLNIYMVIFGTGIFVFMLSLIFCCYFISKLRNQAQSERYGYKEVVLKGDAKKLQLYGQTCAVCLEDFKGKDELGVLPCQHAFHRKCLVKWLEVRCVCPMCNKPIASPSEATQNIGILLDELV

[1] = target: T2, RNF122 bait (Gal4 DNA-binding domain fusion) (human) (UniProt Q9H9V4); test: two-hybrid; Gal4 system; RNF122 bait (pGBK-RC) and prey vectors (pGAD-RC, library of 1500 known genes) cotransfected in yeast Y190, SD/-T-L-H, colony lift filter assays
T2 sequence: T1 sequence

Row | Substance | binding (RNF122-myc (human)) | binding [1]
1 | FLAG-tagged CAML (CAML-FLAG) (from UniProt P49069 1-296) | binds | 
2 | CAML prey (Gal4 activation domain fusion) (from UniProt P49069 1-296) |  | binds
